These are yes or no findings as the source states them, for the method shown. In cells and extracts the contact can be indirect. Some results given as binding are weak or reduced against the parent protein; the word gives no strength.
Legend:
[1] = molecular target: Myocyte enhancer factor 2A (human (endogenous in HUVECs)) (UniProt Q02078); assay: proximity ligation; Duolink in situ PLA on HUVECs fixed in 4% formaldehyde; anti-MEF2A (mouse) and anti-Smad2 (rabbit); control and high glucose (HG) groups; confocal microscopy
[2] = molecular target: Myocyte enhancer factor 2A (human (endogenous in HUVECs)) (UniProt Q02078); assay: co-IP; HUVEC lysate (Lysis Buffer P0013 with PMSF) incubated with MEF2A, Smad2 and IgG antibody at 4°C overnight, Protein A/G sepharose beads 6 h, washed three times; SDS-PAGE and Western blot

By UniProt entry, the sequences of proteins in these tests, tags left out.
UniProt Q02078: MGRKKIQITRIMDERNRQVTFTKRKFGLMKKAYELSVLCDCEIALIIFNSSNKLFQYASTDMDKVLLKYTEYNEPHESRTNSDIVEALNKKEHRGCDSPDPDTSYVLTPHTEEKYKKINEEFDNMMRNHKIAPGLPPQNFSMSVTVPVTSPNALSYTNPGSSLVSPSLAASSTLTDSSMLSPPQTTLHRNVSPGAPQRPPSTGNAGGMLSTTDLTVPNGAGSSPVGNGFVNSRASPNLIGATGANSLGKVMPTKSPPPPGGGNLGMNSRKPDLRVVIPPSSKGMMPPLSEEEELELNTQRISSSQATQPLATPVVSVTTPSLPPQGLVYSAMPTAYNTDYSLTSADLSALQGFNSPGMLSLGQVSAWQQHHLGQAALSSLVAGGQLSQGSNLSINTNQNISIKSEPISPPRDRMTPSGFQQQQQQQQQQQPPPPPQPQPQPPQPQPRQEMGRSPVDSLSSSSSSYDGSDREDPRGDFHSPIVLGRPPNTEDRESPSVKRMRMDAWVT
UniProt Q15796: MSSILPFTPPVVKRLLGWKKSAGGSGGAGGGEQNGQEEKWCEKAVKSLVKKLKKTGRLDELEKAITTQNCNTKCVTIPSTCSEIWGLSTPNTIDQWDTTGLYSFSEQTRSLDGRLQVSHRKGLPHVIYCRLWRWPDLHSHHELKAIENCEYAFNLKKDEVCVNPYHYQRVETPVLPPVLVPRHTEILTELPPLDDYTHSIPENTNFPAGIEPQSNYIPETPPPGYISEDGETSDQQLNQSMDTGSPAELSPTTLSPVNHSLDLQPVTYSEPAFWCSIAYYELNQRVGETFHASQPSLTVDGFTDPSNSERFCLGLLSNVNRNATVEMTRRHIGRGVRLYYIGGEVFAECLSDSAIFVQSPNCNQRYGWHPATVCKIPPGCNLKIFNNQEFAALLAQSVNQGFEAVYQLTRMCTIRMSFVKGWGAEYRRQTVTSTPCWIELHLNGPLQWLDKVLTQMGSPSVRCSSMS

- binding [1]: binds
- binding [2]: binds
Substance: Smad2 (from UniProt Q15796 1-467)

From publication PMC5058738
